Source: article PMC8463608
No constants are given. Whether binding was seen depends on the method and setting. In cells and extracts the contact can be indirect. Some entries that bind do so weakly or less than the wild type. For part of these data: Where a sequence is shown, tags or fusion partners need not be part of it.

Protein sequences, listed by entry. Tags and fused reporters are not part of them. Residues count along the entry.
UniProt Q15848, residues 19-244: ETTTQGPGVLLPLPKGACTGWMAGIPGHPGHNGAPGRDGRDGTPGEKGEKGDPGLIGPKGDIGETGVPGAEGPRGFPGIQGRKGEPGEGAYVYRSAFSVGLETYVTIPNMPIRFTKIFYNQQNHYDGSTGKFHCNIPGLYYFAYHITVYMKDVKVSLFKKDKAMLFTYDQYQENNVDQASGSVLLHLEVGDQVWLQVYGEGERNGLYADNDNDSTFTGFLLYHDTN
UniProt P29844, residues 19-656: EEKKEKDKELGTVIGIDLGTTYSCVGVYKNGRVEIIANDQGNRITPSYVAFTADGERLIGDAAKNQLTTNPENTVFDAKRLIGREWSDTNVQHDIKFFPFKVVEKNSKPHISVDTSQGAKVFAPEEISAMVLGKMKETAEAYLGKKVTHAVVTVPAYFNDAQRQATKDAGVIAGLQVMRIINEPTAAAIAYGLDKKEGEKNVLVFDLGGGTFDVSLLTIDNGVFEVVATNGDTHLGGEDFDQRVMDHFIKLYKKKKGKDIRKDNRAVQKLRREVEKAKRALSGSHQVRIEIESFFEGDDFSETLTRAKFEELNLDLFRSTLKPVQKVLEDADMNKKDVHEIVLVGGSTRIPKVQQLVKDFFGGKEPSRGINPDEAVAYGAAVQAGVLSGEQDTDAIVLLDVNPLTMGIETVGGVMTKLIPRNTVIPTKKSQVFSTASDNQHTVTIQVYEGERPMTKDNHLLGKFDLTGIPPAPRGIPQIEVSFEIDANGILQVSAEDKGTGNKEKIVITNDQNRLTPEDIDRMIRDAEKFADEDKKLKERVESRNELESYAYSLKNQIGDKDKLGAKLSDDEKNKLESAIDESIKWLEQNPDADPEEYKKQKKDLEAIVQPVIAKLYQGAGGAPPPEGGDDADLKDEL

Experiments:
[1] = target: T1, Drosophila adiponectin receptor, Myc-tagged (AdipoR-Myc), expressed in S2 cells (Drosophila) (UniProt Q9VCY8); test: co-IP; AdipoR-Myc, hAdipoQ-Flag and/or Grp78-HA co-transfected in S2 cells (1:1:1, with pAct-GAL4); Myc, HA and Flag IPs, western blot for AdipoR-Myc or Grp78-HA
T1 sequence: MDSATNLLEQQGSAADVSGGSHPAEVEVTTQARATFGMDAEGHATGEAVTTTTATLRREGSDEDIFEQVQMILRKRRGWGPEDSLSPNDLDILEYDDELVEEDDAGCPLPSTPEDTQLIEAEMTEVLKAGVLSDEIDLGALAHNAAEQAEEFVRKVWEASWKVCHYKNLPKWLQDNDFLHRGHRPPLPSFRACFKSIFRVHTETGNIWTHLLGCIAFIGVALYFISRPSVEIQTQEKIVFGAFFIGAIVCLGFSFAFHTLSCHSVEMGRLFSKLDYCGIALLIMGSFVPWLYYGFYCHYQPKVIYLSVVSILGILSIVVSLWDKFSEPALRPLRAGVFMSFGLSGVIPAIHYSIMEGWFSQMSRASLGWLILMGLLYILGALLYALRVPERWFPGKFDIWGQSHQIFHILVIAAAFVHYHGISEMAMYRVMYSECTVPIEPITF

[2] = target: human adiponectin, Flag-tagged (hAdipoQ-Flag), expressed in S2 cells (human) (UniProt Q15848); test: as above

human adiponectin, Flag-tagged (hAdipoQ-Flag), expressed in S2 cells (from UniProt Q15848 19-244) (ligand)
binding [1]: binds

glucose-regulated protein 78 (Grp78), HA-tagged, expressed in S2 cells (from UniProt P29844 19-656)
binding [1]: binds
binding [2]: binds
